From the supplement of paper PMC10849652
Some of the results follow.

Sequences of proteins named here, by UniProt entry; tags and fusion partners are left off. A change or cut given only in a name is not applied to a line headed by its entry.
UniProt Q14186: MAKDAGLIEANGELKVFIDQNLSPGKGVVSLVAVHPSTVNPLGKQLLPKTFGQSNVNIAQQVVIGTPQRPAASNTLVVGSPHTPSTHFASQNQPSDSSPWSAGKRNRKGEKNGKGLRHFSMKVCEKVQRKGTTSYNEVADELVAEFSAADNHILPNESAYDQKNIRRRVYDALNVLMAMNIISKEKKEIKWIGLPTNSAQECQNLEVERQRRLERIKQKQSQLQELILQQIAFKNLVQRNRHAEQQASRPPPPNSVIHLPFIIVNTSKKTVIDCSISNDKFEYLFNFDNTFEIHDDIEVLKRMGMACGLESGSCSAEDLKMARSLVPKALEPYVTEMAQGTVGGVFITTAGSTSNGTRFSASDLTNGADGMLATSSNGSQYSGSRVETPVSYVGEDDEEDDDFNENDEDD
UniProt Q9BW92: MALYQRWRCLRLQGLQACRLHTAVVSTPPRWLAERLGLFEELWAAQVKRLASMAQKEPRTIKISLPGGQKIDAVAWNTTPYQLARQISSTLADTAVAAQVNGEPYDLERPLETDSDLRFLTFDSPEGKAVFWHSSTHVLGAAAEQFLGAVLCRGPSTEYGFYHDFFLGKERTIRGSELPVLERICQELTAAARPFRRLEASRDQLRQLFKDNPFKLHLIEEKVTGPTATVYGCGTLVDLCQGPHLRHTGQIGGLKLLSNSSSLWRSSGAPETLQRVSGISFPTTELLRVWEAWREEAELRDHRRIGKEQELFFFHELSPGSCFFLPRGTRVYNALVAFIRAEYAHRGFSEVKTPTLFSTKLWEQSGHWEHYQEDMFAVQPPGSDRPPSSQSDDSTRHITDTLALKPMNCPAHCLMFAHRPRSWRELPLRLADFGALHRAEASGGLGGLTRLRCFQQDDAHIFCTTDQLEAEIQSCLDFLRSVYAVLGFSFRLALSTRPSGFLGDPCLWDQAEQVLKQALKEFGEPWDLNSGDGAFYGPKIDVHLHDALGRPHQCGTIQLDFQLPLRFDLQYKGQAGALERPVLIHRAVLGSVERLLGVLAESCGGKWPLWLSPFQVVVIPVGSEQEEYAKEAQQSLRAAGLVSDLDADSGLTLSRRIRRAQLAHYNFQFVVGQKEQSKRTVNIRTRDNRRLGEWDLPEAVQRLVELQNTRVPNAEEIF
UniProt Q13148, whole entry, looked up: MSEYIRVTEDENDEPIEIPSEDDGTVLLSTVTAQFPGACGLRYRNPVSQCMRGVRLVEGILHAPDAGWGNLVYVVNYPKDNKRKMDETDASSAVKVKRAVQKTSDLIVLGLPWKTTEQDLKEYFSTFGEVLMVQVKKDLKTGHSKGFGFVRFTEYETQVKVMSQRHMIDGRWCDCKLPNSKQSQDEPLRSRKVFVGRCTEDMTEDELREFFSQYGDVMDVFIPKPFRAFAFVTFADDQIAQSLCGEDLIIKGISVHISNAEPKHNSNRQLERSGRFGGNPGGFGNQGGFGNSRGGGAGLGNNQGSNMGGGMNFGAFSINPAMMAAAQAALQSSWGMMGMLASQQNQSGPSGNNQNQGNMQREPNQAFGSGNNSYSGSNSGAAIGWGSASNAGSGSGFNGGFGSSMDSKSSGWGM
UniProt Q96BS2: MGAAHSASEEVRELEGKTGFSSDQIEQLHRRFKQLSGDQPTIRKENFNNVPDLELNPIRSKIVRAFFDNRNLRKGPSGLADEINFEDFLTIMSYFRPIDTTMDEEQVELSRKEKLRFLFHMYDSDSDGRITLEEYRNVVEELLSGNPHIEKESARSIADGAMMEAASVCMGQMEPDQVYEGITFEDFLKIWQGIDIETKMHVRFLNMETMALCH
UniProt Q9Y6I9: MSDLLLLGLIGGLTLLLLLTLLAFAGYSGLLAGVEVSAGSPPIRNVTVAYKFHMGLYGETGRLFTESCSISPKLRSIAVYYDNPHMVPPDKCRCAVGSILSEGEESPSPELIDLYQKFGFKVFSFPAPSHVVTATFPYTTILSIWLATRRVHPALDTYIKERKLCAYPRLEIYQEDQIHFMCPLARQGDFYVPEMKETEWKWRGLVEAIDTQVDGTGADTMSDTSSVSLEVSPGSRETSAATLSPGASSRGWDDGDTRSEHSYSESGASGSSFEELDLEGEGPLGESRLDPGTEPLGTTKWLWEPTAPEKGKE
UniProt Q9H5Q4: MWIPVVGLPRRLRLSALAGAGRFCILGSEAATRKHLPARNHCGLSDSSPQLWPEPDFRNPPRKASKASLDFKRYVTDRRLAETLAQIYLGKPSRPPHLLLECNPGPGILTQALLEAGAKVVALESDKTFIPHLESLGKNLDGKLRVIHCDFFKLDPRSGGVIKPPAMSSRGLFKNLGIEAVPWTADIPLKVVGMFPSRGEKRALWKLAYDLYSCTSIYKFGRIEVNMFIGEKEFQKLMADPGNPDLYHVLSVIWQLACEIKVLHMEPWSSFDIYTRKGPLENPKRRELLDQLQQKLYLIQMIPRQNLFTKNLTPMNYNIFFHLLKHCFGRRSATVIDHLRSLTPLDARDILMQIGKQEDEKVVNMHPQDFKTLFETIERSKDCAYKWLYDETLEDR
UniProt Q17R31: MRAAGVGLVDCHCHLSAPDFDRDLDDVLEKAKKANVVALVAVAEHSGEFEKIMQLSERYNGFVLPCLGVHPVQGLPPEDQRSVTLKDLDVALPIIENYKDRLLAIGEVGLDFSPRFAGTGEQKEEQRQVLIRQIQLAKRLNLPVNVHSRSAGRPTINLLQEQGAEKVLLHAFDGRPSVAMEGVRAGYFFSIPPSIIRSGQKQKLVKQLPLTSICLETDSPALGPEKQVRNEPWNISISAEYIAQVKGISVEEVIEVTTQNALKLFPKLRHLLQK
UniProt Q8WVM0: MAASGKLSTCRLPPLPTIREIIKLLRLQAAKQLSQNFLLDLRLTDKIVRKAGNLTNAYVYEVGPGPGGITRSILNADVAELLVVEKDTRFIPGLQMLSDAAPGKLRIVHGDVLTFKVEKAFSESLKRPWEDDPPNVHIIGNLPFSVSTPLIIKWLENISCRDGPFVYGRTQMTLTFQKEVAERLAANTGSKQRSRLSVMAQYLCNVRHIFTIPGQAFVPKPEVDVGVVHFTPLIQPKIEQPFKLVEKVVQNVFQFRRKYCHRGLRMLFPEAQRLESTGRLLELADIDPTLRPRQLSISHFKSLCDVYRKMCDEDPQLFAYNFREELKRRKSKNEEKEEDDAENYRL
UniProt Q92844: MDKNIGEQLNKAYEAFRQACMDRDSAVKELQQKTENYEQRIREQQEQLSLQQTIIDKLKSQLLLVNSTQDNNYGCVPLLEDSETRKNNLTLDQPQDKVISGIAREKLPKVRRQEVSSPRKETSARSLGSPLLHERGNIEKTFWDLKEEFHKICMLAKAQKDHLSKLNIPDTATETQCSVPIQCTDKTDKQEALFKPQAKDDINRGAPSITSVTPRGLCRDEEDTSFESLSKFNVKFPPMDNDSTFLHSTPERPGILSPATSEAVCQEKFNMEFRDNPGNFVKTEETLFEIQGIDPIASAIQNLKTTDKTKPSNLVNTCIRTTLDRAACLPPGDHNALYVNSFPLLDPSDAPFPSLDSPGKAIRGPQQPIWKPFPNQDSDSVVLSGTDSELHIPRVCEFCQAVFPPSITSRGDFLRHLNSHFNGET
UniProt Q7L7X3: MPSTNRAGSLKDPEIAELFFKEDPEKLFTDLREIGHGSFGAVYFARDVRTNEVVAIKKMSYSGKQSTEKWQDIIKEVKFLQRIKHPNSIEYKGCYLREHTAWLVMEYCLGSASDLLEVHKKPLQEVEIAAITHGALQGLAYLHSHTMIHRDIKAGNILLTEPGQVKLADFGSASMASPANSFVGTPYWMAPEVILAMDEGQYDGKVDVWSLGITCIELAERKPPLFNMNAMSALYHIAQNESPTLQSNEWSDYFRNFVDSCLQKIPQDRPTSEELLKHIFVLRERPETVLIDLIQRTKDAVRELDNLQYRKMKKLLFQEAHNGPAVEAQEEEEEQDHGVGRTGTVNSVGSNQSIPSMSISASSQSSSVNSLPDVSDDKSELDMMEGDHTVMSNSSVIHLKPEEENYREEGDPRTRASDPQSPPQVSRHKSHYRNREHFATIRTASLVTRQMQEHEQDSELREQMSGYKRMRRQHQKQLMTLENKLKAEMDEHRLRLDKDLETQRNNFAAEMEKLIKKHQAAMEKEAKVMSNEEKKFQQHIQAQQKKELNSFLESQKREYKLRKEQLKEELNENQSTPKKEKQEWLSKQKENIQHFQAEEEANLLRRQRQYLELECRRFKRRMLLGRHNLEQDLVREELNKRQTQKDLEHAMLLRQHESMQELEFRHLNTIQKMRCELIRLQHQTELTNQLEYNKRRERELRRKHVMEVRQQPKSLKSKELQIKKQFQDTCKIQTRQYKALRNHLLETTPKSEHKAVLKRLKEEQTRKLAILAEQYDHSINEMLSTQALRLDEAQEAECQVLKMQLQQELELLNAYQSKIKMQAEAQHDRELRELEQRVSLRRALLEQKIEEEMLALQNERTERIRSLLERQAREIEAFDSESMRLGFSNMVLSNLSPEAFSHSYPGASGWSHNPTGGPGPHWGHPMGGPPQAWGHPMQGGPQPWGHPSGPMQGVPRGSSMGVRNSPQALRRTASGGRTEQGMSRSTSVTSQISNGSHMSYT
UniProt P19532: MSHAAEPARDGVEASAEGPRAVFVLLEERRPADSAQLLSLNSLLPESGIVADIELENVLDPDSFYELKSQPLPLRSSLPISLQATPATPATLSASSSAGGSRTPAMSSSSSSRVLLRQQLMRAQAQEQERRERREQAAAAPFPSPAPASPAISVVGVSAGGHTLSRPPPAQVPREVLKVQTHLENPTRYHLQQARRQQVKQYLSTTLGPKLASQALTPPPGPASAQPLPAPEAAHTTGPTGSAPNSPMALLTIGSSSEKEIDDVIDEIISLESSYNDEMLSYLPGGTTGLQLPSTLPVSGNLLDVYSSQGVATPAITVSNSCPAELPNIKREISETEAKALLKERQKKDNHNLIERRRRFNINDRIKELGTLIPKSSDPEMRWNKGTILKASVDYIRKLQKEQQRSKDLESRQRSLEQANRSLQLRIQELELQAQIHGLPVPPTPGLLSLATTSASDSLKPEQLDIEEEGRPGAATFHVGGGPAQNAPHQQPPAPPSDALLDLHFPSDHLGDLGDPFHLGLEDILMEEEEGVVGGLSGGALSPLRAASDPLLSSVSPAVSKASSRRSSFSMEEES
UniProt Q9Y4I5: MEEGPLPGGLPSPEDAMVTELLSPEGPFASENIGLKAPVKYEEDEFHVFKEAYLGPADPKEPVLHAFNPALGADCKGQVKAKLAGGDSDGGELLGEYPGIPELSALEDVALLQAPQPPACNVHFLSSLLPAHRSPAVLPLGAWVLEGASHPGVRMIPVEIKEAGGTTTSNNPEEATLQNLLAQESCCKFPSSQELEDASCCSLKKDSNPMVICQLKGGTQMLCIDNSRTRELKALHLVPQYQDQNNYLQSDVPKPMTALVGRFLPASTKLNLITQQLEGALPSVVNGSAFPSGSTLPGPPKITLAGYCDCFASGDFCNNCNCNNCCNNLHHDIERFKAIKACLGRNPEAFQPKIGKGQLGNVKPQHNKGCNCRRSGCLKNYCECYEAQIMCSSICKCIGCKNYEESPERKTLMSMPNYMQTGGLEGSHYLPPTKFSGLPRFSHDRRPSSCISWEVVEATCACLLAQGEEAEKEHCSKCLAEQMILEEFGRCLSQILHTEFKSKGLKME
UniProt Q12788: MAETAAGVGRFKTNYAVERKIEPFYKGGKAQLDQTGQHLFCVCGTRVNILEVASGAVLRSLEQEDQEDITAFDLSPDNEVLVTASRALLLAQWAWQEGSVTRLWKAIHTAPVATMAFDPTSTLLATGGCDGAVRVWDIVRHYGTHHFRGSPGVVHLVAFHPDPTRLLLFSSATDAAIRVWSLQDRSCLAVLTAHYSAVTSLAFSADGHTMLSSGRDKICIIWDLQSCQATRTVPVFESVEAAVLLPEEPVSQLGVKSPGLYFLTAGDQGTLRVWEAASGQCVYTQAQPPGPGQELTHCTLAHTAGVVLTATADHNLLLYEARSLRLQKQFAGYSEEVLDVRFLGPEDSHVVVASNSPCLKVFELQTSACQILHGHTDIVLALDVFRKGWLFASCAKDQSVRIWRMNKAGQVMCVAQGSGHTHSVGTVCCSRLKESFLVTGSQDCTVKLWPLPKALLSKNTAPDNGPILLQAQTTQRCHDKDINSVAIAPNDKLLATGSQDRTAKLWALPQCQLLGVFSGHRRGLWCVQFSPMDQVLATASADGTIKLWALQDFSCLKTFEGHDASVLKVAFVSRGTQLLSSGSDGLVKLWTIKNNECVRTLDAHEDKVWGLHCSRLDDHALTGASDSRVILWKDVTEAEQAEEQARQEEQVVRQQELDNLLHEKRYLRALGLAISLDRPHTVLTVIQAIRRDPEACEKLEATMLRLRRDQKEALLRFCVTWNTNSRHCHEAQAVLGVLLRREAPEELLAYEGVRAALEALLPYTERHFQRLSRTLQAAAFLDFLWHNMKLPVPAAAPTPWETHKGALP

How the values were obtained:
Experiment in all cases: log2 fold change, soluble protein after heating vs DMSO (PISA); higher = thermal stabilisation; K562 lysate, 10 uM; active = over 0.2 and 3.5 SD of the protein, either way, in both replicates (recomputed)
erlotinib = compound: C#Cc1cccc(Nc2ncnc3cc(OCCOC)c(OCCOC)cc23)c1 [erlotinib]
How it was run: (§1)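 Pellets of K562 cells were dounce-homogenised in PBS pH 7.4 with 1 mM MgCl2, and the crude extract was held at 1 mg/mL protein for a 30 min treatment with 10 μM compound. Aliquots were heated for 3 min over 48°C-58°C and pooled before NP-40 was added to 0.5% at 4°C. The supernatant from 21,000xg for 90 min was quantified by TMTpro 16plex LC-MS/MS with channel sums equalised. Values are reported from duplicates as log-two fold change in thermal stability relative to solvent controls.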

[1] = compound: C/C(=N\NC(=O)C1=CC(=CC=C1)S(=O)(=O)N2CCOCC2)/C3=C(C=CC(=C3)Cl)O
How it was run: as §1

[2] = compound: C1=CC(=CC=C1C2=NC3=C(N2)C=C(C=C3)C(=O)N)OC4=CC=C(C=C4)Cl
How it was run: as §1

[3] = compound: C1=CC2=C(C=CC(=C2)/C=C\3/C(=O)NC(=NCC4=CC=CS4)S3)N=C1
How it was run: as §1

[4] = compound: C1=CC2=NC=CN=C2C=C1/C=C/3\C(=O)NC(=O)S3
How it was run: as §1

[5] = compound: C1=CC=C(C=C1)C2=NC(=C(N2)C3=CC=NC=C3)C4=CC(=C(C=C4)Cl)O
How it was run: as §1

[6] = compound: C1=CC=C2C(=C1)C3=NNC4=CC=CC(=C43)C2=O
How it was run: as §1

[7] = compound: C1CCN(C1)C(=O)NC2=CC=CC(=C2)NC3=NC=C(C(=N3)NCCC4=CN=CN4)Br
How it was run: as §1

[8] = compound: C1CN(CCC1(CC2=CC=C(C=C2)Cl)N)C3=NC=NC4=C3C=CN4
How it was run: as §1

IRAK-1-4 Inhibitor I = compound: C1COCCN1CCN2C3=CC=CC=C3N=C2NC(=O)C4=CC(=CC=C4)[N+](=O)[O-] [IRAK-1-4 Inhibitor I]
How it was run: as §1

Measured: log2 fold change

TFDP1 (UniProt Q14186)
inactive: erlotinib 0.039 | [1] 0.021 | [2] -0.12 | [3] 0.07 | [4] -0.086 | [5] 0.071 | [6] -0.059 | [7] -0.087 | [8] 0.03 | IRAK-1-4 Inhibitor I 0.026

TCEANC2 (UniProt Q96MN5)
inactive: erlotinib -0.107 | [1] 0.107 | [2] -0.04 | [3] 0.09 | [4] 0.045 | [5] -0.018 | [6] 0.119 | [7] -0.114 | [8] -0.042 | IRAK-1-4 Inhibitor I 0.137

TARS2 (UniProt Q9BW92)
inactive: erlotinib 0.001 | [1] -0.063 | [2] -0.026 | [3] 0.017 | [4] -0.017 | [5] 0.023 | [6] 0.002 | [7] -0.011 | [8] 0.015 | IRAK-1-4 Inhibitor I 0.009

TCF25 (UniProt Q9BQ70)
inactive: erlotinib -0.01 | [1] 0.004 | [2] -0.166 | [3] 0.057 | [4] 0.046 | [5] 0.057 | [6] 0.029 | [7] 0.092 | [8] 0.055 | IRAK-1-4 Inhibitor I -0.028

TBC1D2 (UniProt Q9BYX2)
inactive: erlotinib 0.029 | [1] -0.033 | [2] 0.048 | [3] -0.006 | [4] -0.031 | [5] 0.003 | [6] -0.002 | [7] -0.008 | [8] 0.041 | IRAK-1-4 Inhibitor I 0.038

TBC1D15 isoform 3 (UniProt Q8TC07)
inactive: erlotinib 0.008 | [1] -0.07 | [2] -0.03 | [3] 0.011 | [4] 0.012 | [5] -0.001 | [6] -0.003 | [7] 0.004 | [8] -0.013 | IRAK-1-4 Inhibitor I 0.008

TFAP4 (UniProt Q01664)
inactive: erlotinib -0.063 | [1] -0.042 | [2] 0.017 | [3] -0.025 | [4] 0.018 | [5] -0.09 | [6] 0.055 | [7] 0.135 | [8] -0.016 | IRAK-1-4 Inhibitor I -0.061

TARDBP (UniProt Q13148)
inactive: erlotinib -0.017 | [1] -0.092 | [2] 0.018 | [3] 0.004 | [4] 0.09 | [5] -0.133 | [6] -0.036 | [7] -0.065 | [8] 0.032 | IRAK-1-4 Inhibitor I 0.048

TESC (UniProt Q96BS2)
inactive: erlotinib -0.043 | [1] 0.042 | [2] 0.03 | [3] 0.074 | [4] -0.042 | [5] -0.006 | [6] 0.036 | [7] 0.003 | [8] 0.04 | IRAK-1-4 Inhibitor I -0.003

TCF3 (UniProt P15923)
inactive: erlotinib 0.027 | [1] -0.028 | [2] 0.067 | [3] 0.004 | [4] 0.016 | [5] 0.011 | [6] 0.07 | [7] -0.005 | [8] 0.022 | IRAK-1-4 Inhibitor I 0.04

TAF9 (UniProt Q16594)
inactive: erlotinib 0.022 | [1] 0.009 | [2] 0.081 | [3] 0.056 | [4] 0.002 | [5] 0.013 | [6] -0.052 | [7] -0.08 | [8] 0.084 | IRAK-1-4 Inhibitor I 0.032

TEX264 (UniProt Q9Y6I9)
inactive: erlotinib -0.047 | [1] -0.142 | [2] -0.048 | [3] 0.162 | [4] 0.017 | [5] 0.263 | [6] 0.228 | [7] -0.009 | [8] -0.131 | IRAK-1-4 Inhibitor I 0.029

TFB2M (UniProt Q9H5Q4)
inactive: erlotinib 0.058 | [1] 0.205 | [2] -0.015 | [3] 0.001 | [4] 0.019 | [5] -0.015 | [6] -0.039 | [7] 0.001 | [8] -0.004 | IRAK-1-4 Inhibitor I 0.046

TET1 (UniProt Q8NFU7)
inactive: erlotinib 0.164 | [1] 0.062 | [2] 0.178 | [3] 0.027 | [4] -0.089 | [5] 0.115 | [6] -0.164 | [7] -0.064 | [8] 0.171 | IRAK-1-4 Inhibitor I 0.209

TATDN3 isoform 3 (UniProt Q17R31)
inactive: erlotinib -0.017 | [1] -0.027 | [2] -0.036 | [3] -0.045 | [4] 0.049 | [5] 0.018 | [6] -0.016 | [7] -0.079 | [8] 0.016 | IRAK-1-4 Inhibitor I 0.034

TFPI (UniProt P10646)
inactive: erlotinib -0.069 | [1] 0.093 | [2] 0.011 | [3] 0.089 | [4] -0.141 | [5] -0.02 | [6] -0.232 | [7] -0.096 | [8] 0.065 | IRAK-1-4 Inhibitor I 0.003

TFB1M (UniProt Q8WVM0)
inactive: erlotinib 0.011 | [1] 0.009 | [2] 0.01 | [3] 0.013 | [4] -0.095 | [5] -0.041 | [6] -0.061 | [7] -0.006 | [8] 0.05 | IRAK-1-4 Inhibitor I 0.005

TAF6L (UniProt Q9Y6J9)
inactive: erlotinib -0.013 | [1] 0.174 | [2] -0.077 | [3] 0.005 | [4] 0.025 | [5] 0.055 | [6] 0.055 | [7] 0.022 | [8] -0.104 | IRAK-1-4 Inhibitor I 0.051

TANK (UniProt Q92844)
inactive: erlotinib 0 | [1] -0.089 | [2] -0.015 | [3] -0.069 | [4] 0.003 | [5] 0.025 | [6] 0.089 | [7] 0.082 | [8] 0 | IRAK-1-4 Inhibitor I 0.028

TEAD1 (UniProt P28347)
inactive: erlotinib 0.141 | [1] 0.014 | [2] -0.302 | [3] 0.128 | [4] -0.016 | [6] 0.117 | [7] -0.008 | [8] 0.129

TAOK1 (UniProt Q7L7X3)
inactive: erlotinib -0.005 | [1] -0.018 | [2] 0.021 | [3] -0.003 | [4] 0.026 | [5] 0.02 | [6] 0.03 | [7] -0.021 | [8] 0.041 | IRAK-1-4 Inhibitor I -0.018

Fetched one by one from the entries so far, two records:
TANK (UniProt Q92844)
inactive: erlotinib 0 | [1] -0.089 | [2] -0.015 | [3] -0.069 | [4] 0.003 | [5] 0.025 | [6] 0.089 | [7] 0.082 | [8] 0 | IRAK-1-4 Inhibitor I 0.028

TAOK1 (UniProt Q7L7X3)
inactive: erlotinib -0.005 | [1] -0.018 | [2] 0.021 | [3] -0.003 | [4] 0.026 | [5] 0.02 | [6] 0.03 | [7] -0.021 | [8] 0.041 | IRAK-1-4 Inhibitor I -0.018

Continuation:

TFE3 (UniProt P19532)
inactive: erlotinib 0.033 | [1] 0.026 | [2] -0.052 | [3] -0.009 | [4] -0.002 | [5] 0.005 | [6] 0.038 | [7] 0.022 | [8] 0.016 | IRAK-1-4 Inhibitor I 0.008

TCP11L2 (UniProt Q8N4U5)
inactive: erlotinib 0.213 | [1] 0.15 | [2] -0.049 | [3] 0.074 | [5] 0.149 | [6] 0.068 | [7] 0.017 | [8] 0 | IRAK-1-4 Inhibitor I -0.053

TDP1 (UniProt Q9NUW8)
inactive: erlotinib 0.061 | [1] -0.024 | [3] 0.076 | [4] -0.011 | [5] -0.017 | [6] 0.029 | [7] -0.036 | [8] -0.037 | IRAK-1-4 Inhibitor I 0.011

TESMIN (UniProt Q9Y4I5)
inactive: erlotinib -0.068 | [1] 0.148 | [2] -0.125 | [3] -0.122 | [5] -0.015 | [6] 0.171 | [7] -0.105 | [8] -0.02 | IRAK-1-4 Inhibitor I 0.12

TBCD (UniProt Q9BTW9)
inactive: erlotinib 0.02 | [1] -0.043 | [2] 0.01 | [3] 0.006 | [4] 0.023 | [5] -0.011 | [6] -0.049 | [7] -0.003 | [8] -0.013 | IRAK-1-4 Inhibitor I 0.013

TBL3 (UniProt Q12788)
inactive: erlotinib 0.082 | [1] -0.001 | [2] -0.071 | [3] 0.037 | [4] 0.012 | [5] 0.017 | [6] 0.043 | [7] 0.074 | [8] -0.016 | IRAK-1-4 Inhibitor I 0.01

TAPBP isoform 3 (UniProt O15533)
inactive: erlotinib 0.026 | [1] -0.067 | [2] 0.187 | [3] -0.078 | [4] 0.142 | [6] 0.075 | [7] 0.011 | [8] 0.011
